The results in this text go back to publication PMC6811503.

No constants are given. Whether binding was seen depends on the method and setting. Binding seen in cells or lysates may run through a third protein. Here binding means that the protein was enriched with, or labelled near, the bait; the list need not be complete. Tags and fused reporters may be left off the sequences shown.

B1: Met6 (protein, UniProt J9VXF1 1-763)
chain: MVKSAVLGYPRIGVNRAMKKAIEAYWAGKISAEELQTTAKNVRKQRWESIKNAGVDTIPSGEFTLYDHLLDHSFNFGVIPERYVAQKLDPLDTYFAMGRGRQDRSKGIDVVACEMGKFFDSNYHIVKVDHSPETEFKLNNNQALSEYKEAKELGITTRPVLFGPITYLSLVRKANSAPAEFQPLDLLDKLIPVYKELLSQLKEAGVEEVQLDEPILVMDKAESQAELFKKTYEALAPVAPKITVTSAYGRVGKSIEFLKDLPVFALHLDLDREPKQLEEVVAAIKPTKLHLELGVVSGRNIWKNDLKASKALAEKAIAELGADRVSVSTSSSLLHTPISVKVENKLTAEQLSWLSFAEEKCEEVAVLAQALNGTEGAIFEQNTKDIAARREFERTSDSAVRDRVAAITEEQLKRKSPFPARREAQKKHLNLPKFPTTTIGSFPQTKEIRVARAKFSKGEITQEEYEKAMENEIKAVVDFQEKCGLDLLVHGEPERNDMVQYFGEQLNGFIFTQLGWVQSYGSRYVRPPIVVSDVSRPTPMTVKWSSYAQSLTEKPMKGMLTGPVTILNWSFPRADVSKEIQSKQLALALRDEVVDLAKAGIKAIQVDEPAIREGLPLRKADWDNYLTWAVDSFRLSTSGVEDDIQVHSHFCYSDFGDIFPSIQRLDADVISIEASKADLKLLDVFKSYGYSNEIGPGVYDIHSPRVPGEQEIKDRIAAMVKVLPADLMVVNPDCGLKTRGWKETEESLANLVAAAKWARETYA
B2: Puf6 (protein, UniProt J9VN98 1-688)
chain: MAPKAVQKKRSAPDAGSAPKKAKIVQSGKSSKPAAQKQSKPRSAPREREEEAKKRKKPITQGGGEENEDVSMDEGSFSDEDQEDQETERNDVEMDDGDAQEAAPEKKRLSKAEKQALHAAQPHRTTLLPSHPLLHDTLLPLWETARRADLSKEERKKAITELWEAVKGRVIEVSRGHKGGRVLQTIVKYGGKEERLGVAMELEPQWKAMMESKYSKFLMSKLIRYCPSIRPLLIPHLAPQLLNLLNHAHAVTPLSDLYELWASAKERRLLVRGFYPREVKIFDGAKQGVEVKGLEASLEDMGEGKGRERVLDAIEKTVLDVFNATQKNALGQAIFHRLVLEYVQCIYKFLDAETSSKKMHELLAAGAESFPEIVHTKDGSAVVRELIVRGNAKDRKQILQPLRKHVEALCKDGDAQMVLFTAFDCVDDTKLMGKAFVSDIVSLAPELAFDKHGRRAIFYLLTPTSTRHFIHASLTSLAESAQKSKELGTSKKGMDVRRKELLSYANEGLVKLVEEKGEEMVRDPGAGLVVQEIMLYAQGDKSAAIQTLASALTLPYPDPAPLDPNPDPTVSHPLDLSHAIRTYKLLLSGGHFDHKTQTLSIPDSSLSPAFSRAVWDALTSAEAGGAENVGRVCKGNAPFVMVELIEGMKKRGDGEEVKKILGKKGVKETVEKSVRKGTALLTEKIGEL
B3: YHR020W (protein, UniProt J9VGR3 1-740)
chain: MLRAFFKHSRAFTTTRHHIHIMSVTDTTILDRLAQLQIAHPDVISHAPVKGAAEWKAELTLASANHATTPLTKTLLFKPKTAKSAVPTPVMVLAQENTETPSGAIGKFLELKELRLASEDLIKEVIPSAASKDDVSAFALPKPVPETLHLLLDAKLAKSEEQHAIHLTSSATTLLIKGSDIKAYLDNLVEGEGVKIIDFAELKASAPAPIEKKPAAAKEAKAEASTAVADDDRYEMAIRFKKDEDFSGWYTDVLLKGQMLDYYDISGCYILRPWSYSIWQIIQNWFDDEIKKLGVQDCYFPMFVSSARLEKEKDHIEGFAPEVAWVTKAGSSDLEEHIAIRPTSETVMYPYYAKWINSHRDLPLKLNQWNSVVRWEFKNPQPFLRTREFLWQEGHTAFLDKADADKEVLDILELYRKVYEDILAVPVIPGKKSEKEKFAGGDYTTTVEGFIPTTGRGIQAATSHHLGQNFSKMFDITVESPDKSQGRLYAYQNSWGLSTRSLGVMVMVHGDDQGLVLPPRVALQQVAIVPVGLSKGEGKNQPIYDACLKLERELVAAGIRAKADLRDGYTPGWKFNDWEMRGVPLRLELGPRDIANNSTLSVRRYDNHKAPMPLSDIANTVRTYLDDIQKSMLDRAAATFSDRLKVVTSWEDVVPTLDAKNVLVLPWCEAEECEDEIKEKSKSLANKGAAEDAKAPSAGAKSLCIPFDQKRFGEFPQGEEQKCVQCGKKAKSWTLFGRSY
B4: Cog6 (protein, UniProt J9VWF8 1-745)
chain: MATNPNTPAPPATRTNPISLKIYKAIGTSFDDVSSREALEIASGMYGPEEPKGKGKAQSGYEAIEEDDDTLPRRRTLKGQSAAIGRKYLKQDIETSLATGSAKFLEAFAEVDKKLNVLREHMQEMQVRCDQVQSELDQANSGTKFLLERADVLRSQRASAQLRAHLITLFLSRFTLSNSELTALTSREVTIGQPLFDALDHVEKIRTDCELLLSGEEGKAQAGIDIMSLTSEQLESGYIKIHRYCQFEFRQFTRETQLEVSPVMLQAIRRLRDRPALLADAIQTLTSTRQSSILHQFLDALTRGGPGGLPRPIEIHAHDPTRYVGDMLAWVHQTTATEHEFLEGMFGVKEKKRWVGQERDGEEGEEVRMASEVLDKDLEGLSRPLKLRIQQTIKSQEGVIMAYKIANLLQFYLVTMRKTIGGKAVLVQTLQEIHDQAYIAFYETLDAQGRSLLRFLHPPDATLTPPITLRDAAQILRELLFVYSTSLVDPAERESDTDLAKLLDKAIVPCVEMCERMAEMRRGKSGGGEWERDIFMVNSLGYLEHTLEMYDFTTKTLHMLDEKIKTHVESMTFEHHGKLLEACGLAAVMRTIRTRPEDTPLSRLHATSPKALTSALSKFSTWLSTVDPSTSPHLALLSSPRLAVEIHRKALRKIYDAYGEVCERVLDKAEGYEFGETMLRRGREEVGVALGVGDGWELEEDTEQRSMEQEEQQEKGTGDQGDKEKKGIMKEEQKGQDAENTDGEA
B5: Aco1 (protein, UniProt J9VL89 1-792)
chain: MVSSRYLVRGANSLSRQSMLAKRSMATVQSSIGDKKVEMSNLEKGKFINYQRIENNLQVVRSRLNRPLTLAEKIVYGHLDNPHEQDIERGVSYLKLRPDRVACQDATAQMAILQFMSAGLPQTAVPTSVHCDHLIQAQIGGKADLARAIDINKEVYDFLATACAKYGIGFWKPGSGIIHQIILENYAVPGLMMIGTDSHTPNAGGLGMVACGVGGADAVDVMADIPWELKAPKVIGVYLDGKMNGWTTPKDVILKVAGILTVKGGTGAIIEYHGPGVESLSCTGMATICNMGAEIGATTSLFPFNHRMGTYLKATNRPAIAQYAEEFNHNLQPDEGCEYDQRIEINLSELEPHINGPFTPDLATPLSKFAEEVKRHSWPQELKVGLIGSCTNSSYEDMSRSAHIAREAASHGLTAKSKFTITPGSEQVRATIARDGMVDDFEKVGGLVLANACGPCIGQWDRRDVKKGEANSIITSYNRNFTGRNDANPATHAFVASPDLVTAMIFAGDLTFNPMTDTLKGADGKEFKFSDPSGYELPAKGYDPGENTFQAPPADGTTVSVAVSPTSDRLQLLKPFKPWDGKDIIDARVLIKAKGKCTTDHISAGGPWLKYRGHLENISQNCLIGAINADNGEANKILNQETGEYGAVPTVAAYYRDRDIPWVVVGDENYGEGSSREHAALEPRFLGGRAVICRSFARIHETNLKKQGMLPLWFKNPADYDKISGTDKISILDLQNFKPGQDIKVELTHKDGSKEQFLTTSSINEGQWGWFKAGSALNMMASAAKARAEKQA
B6: Hrb1 (protein, UniProt J9VJ75 1-549)
chain: MEDDREMRGDEPMAPEAGDRYRRDDRDRSRSRERHSSRRDEDRYRSRRRSYSRSRSRSRTRSPHRHRHRSPSRSRSRSRDRRDRDRSRSRDRGERRSYREDRHGGDHRGSGRPRSPRRGSGRYGAPRQDWEKSVGGPMNAPASEAEAHAKVSKRENRLYVGNLAYDCNYKDLANFMERGGGKVVFSEVLTTPAGQSKGCGIVEFASQEEAQRAKAELSDKPFFGRSVFIREDREETARFGAPPIPGKIGIALGEARHFLGNQQPHGFHGHGPAIPNRNLFVGNLPLQASWQDLKDLMRQAGEVIRADIGFRPDGTPKGNGTVVFLNADDAKAAIEMFNGFDWFGNVLEVREDRFAHGGAFRGRGGFRGAFFPRGGFGFRGGFRGGFRGGFMGGGMGMGHMGMNAVAGGVGAGGAAAAAGGRNFSNDLYADYNGPEGGEGMAVDQVAPSGLEPIPAEPNQQILVRNLPWSTSNEDLVELFETIGTVTLAEILYSGGQSKGEGIVQFAETADAANASEKFMGWPYGGRALDVQFNPRWHEFSASAIKVPQA
B7: CNAG_00410 (protein, UniProt J9VER4 1-755)
chain: MATHTPQTNSTPAIVGEKVPLNTQALPKIVFAGRTGRILCVADIRGDYHELNRLIREHDATAVIHTGDFGFMTAESVDRMNDKILRHLIQYSPLLPPAARTQLLGIPPSAGRSALINQLNNSSVHFPLSQFPHLLSGAINFPVPVFTTWGLVEDVNVIEKFRTGEYGVQNLAILDEATSRLVEVGGVKLRLLGLGGTVADHKLFDYGEGHGSIAGAQGTMWTTALQIGELIDTAQRTFNPDETRLFVSTAPTSRNGLMTLVSNAIKADLTISCGLHFRYPVSYNEYSIHPDFESYRRKTQQAKDDFKGLFDQVRDRVFGSLDDKQTALLHKTLSAIDNVPIADDGMWANTWHWSLSDAGFGNMLLSISDSRVSAETKSSGVNFAHRTGKGPAPPTGTTISSAPSGLNSVKSFSSRPGPGPVGARPPPAQGMPPASGPLGAHGAPGAFASQGRVPVRPGMGPGFSARPPPGPRNTRQFGSNPASSMGGLSQSQMFAQAQAQAAVSGKTAAAASLVNGRKDEKNGKPEGEKGVNEEEKKEKLAANGNAIPEKIKDTDKIEEKKDANPIEKDEDQEKSQDENPWGEDKEEKKGSNPWADDISDEGEKKDEDKAEFTEDVKPKRYSLYIKGLPTPTTEEELKAVVGESGQKAIQVKIIFDQFTKQQKDFGYLDFDSEEVMNEALKASTGTIRDTPVNVSISKPTVPRYNNRQFGGPGGRGRGGFRGRGRGFGSAGPRRERGEREGSGSGNATAGGEKKA

In this assay the target is T1, Pbp1-4×FLAG (C. neoformans) (UniProt J9VND4).
T1 sequence: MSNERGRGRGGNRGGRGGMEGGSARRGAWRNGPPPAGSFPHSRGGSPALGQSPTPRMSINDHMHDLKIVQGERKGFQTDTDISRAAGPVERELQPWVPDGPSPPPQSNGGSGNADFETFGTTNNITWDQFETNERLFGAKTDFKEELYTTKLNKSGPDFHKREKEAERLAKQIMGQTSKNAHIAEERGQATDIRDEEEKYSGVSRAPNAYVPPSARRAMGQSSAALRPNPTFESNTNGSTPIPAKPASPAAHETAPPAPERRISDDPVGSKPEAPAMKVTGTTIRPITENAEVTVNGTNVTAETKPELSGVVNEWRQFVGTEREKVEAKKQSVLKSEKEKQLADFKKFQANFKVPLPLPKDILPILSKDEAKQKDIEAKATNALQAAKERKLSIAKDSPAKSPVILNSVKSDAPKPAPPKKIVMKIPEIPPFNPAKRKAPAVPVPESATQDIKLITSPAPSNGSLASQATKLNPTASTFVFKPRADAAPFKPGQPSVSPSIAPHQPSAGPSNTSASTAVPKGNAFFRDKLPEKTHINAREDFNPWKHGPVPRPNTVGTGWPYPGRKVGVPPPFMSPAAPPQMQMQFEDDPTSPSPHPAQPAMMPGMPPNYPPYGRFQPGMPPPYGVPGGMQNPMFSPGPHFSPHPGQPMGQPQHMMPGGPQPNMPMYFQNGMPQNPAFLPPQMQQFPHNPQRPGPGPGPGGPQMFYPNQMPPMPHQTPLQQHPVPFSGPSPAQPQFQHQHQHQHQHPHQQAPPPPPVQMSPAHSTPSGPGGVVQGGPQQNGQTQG
Put plainly: affinity purification with mass spectrometry; anti-FLAG M2 affinity gel on lysate of HP181 (Pbp1-4xFLAG), untagged H99 as control; cells grown at 30°C then 1 h at 37°C; lysis buffer 50 mM Tris-HCl pH 7.5, 150 NaCl, 0.5 mM EDTA, 0.5% Triton X-100; 4°C; one Coomassie-stained band seen only with HP181 was excised, digested with trypsin and analysed by LC-MS/MS.
As to B1, the binding entry is “binds”.
Turning to B2, the binding result is “binds”.
In the case of B3, the binding entry was “binds”.
For the molecule B4, the binding entry is “binds”.
On to B5, for which the binding entry was “binds”.
In the case of B6, the binding entry is “binds”.
With B7 the entry was “binds”.
